# Source: publication PMC11231609
# The chains behind the UniProt entries cited, without tags or fusion partners. Residues count along the entry.
# UniProt Q16602, residues 23-461: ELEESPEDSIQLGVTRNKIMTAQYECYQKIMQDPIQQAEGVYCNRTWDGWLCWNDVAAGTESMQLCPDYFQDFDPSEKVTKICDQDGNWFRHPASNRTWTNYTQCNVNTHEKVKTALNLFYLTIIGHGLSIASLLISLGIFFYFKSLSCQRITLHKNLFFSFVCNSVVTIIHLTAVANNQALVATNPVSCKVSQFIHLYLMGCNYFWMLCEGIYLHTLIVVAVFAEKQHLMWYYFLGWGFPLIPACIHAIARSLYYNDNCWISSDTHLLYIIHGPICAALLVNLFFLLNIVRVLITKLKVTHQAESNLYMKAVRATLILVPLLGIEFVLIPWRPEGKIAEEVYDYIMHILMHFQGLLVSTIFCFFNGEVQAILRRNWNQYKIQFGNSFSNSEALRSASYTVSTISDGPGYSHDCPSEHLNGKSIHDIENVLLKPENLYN
# UniProt Q13557: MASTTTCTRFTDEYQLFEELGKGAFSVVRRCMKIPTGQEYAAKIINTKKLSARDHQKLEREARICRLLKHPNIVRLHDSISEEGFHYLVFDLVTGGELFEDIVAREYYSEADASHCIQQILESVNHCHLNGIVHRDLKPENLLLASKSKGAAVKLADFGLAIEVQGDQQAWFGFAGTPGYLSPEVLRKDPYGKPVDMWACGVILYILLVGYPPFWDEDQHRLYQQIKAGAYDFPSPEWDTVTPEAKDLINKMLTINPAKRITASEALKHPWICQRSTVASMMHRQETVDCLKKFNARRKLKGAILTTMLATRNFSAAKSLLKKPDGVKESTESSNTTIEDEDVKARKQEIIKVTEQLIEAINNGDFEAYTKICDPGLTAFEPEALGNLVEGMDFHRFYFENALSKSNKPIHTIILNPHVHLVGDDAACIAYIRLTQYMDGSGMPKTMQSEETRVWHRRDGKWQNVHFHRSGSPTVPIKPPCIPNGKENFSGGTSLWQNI
# UniProt Q9Y5S2: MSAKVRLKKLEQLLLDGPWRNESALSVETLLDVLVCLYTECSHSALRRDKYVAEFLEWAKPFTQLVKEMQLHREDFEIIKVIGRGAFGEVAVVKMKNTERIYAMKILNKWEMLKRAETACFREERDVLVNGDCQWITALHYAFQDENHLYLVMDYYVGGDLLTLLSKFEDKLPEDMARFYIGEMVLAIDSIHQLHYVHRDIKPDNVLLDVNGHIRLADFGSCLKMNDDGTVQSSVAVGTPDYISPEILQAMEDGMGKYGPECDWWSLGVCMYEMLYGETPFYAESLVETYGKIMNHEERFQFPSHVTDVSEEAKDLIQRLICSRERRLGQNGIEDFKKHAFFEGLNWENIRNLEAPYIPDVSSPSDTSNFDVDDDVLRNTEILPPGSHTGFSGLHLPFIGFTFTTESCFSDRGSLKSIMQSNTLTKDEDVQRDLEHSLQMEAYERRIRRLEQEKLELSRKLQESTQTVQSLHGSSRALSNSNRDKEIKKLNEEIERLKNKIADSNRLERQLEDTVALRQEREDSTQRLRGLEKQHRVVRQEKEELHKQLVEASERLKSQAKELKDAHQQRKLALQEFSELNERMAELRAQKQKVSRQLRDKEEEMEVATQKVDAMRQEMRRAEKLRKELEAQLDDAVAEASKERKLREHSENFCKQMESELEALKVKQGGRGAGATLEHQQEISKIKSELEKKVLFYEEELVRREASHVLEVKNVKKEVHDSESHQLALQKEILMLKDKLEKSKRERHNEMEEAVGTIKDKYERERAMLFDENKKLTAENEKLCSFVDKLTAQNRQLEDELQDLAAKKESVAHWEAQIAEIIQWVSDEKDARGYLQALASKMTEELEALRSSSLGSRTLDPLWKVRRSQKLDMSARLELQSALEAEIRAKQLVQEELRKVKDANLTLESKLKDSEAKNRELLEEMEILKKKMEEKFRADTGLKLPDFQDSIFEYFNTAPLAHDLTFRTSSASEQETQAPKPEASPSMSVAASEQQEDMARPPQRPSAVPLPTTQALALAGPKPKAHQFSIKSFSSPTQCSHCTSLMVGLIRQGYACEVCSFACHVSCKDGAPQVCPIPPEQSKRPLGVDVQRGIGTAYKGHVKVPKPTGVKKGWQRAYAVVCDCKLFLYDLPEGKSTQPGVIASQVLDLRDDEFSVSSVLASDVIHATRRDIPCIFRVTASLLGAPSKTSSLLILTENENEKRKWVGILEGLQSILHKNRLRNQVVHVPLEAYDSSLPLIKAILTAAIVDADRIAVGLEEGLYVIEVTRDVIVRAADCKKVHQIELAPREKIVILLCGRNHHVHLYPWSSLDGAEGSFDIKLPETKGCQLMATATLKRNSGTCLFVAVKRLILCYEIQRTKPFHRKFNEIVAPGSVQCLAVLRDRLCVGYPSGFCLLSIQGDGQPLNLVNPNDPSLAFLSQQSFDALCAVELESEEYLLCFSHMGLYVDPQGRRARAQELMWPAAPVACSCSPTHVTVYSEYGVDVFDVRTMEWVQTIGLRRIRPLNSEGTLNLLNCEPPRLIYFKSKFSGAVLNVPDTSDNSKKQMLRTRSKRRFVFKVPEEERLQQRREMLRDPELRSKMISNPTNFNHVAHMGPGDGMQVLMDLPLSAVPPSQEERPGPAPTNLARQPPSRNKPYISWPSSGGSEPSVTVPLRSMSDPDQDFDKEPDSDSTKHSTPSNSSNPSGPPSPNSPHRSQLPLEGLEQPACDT
# These are yes or no findings as the source states them, for the method shown. Binding seen in cells or lysates may run through a third protein. Some entries that bind do so weakly or less than the wild type.
# B1: nucleoporin 93 (protein, UniProt Q8N1F7 1-819)
# chain: MDTEGFGELLQQAEQLAAETEGISELPHVERNLQEIQQAGERLRSRTLTRTSQETADVKASVLLGSRGLDISHISQRLESLSAATTFEPLEPVKDTDIQGFLKNEKDNALLSAIEESRKRTFGMAEEYHRESMLVEWEQVKQRILHTLLASGEDALDFTQESEPSYISDVGPPGRSSLDNIEMAYARQIYIYNEKIVNGHLQPNLVDLCASVAELDDKSISDMWTMVKQMTDVLLTPATDALKNRSSVEVRMEFVRQALAYLEQSYKNYTLVTVFGNLHQAQLGGVPGTYQLVRSFLNIKLPAPLPGLQDGEVEGHPVWALIYYCMRCGDLLAASQVVNRAQHQLGEFKTWFQEYMNSKDRRLSPATENKLRLHYRRALRNNTDPYKRAVYCIIGRCDVTDNQSEVADKTEDYLWLKLNQVCFDDDGTSSPQDRLTLSQFQKQLLEDYGESHFTVNQQPFLYFQVLFLTAQFEAAVAFLFRMERLRCHAVHVALVLFELKLLLKSSGQSAQLLSHEPGDPPCLRRLNFVRLLMLYTRKFESTDPREALQYFYFLRDEKDSQGENMFLRCVSELVIESREFDMILGKLENDGSRKPGVIDKFTSDTKPIINKVASVAENKGLFEEAAKLYDLAKNADKVLELMNKLLSPVVPQISAPQSNKERLKNMALSIAERYRAQGISANKFVDSTFYLLLDLITFFDEYHSGHIDRAFDIIERLKLVPLNQESVEERVAAFRNFSDEIRHNLSEVLLATMNILFTQFKRLKGTSPSSSSRPQRVIEDRDSQLRSQARTLITFAGMIPYRTSGDTNARLVQMEVLMN
# B2: iron regulatory protein 1 (protein, UniProt P21399 1-889)
# chain: MSNPFAHLAEPLDPVQPGKKFFNLNKLEDSRYGRLPFSIRVLLEAAIRNCDEFLVKKQDIENILHWNVTQHKNIEVPFKPARVILQDFTGVPAVVDFAAMRDAVKKLGGDPEKINPVCPADLVIDHSIQVDFNRRADSLQKNQDLEFERNRERFEFLKWGSQAFHNMRIIPPGSGIIHQVNLEYLARVVFDQDGYYYPDSLVGTDSHTTMIDGLGILGWGVGGIEAEAVMLGQPISMVLPQVIGYRLMGKPHPLVTSTDIVLTITKHLRQVGVVGKFVEFFGPGVAQLSIADRATIANMCPEYGATAAFFPVDEVSITYLVQTGRDEEKLKYIKKYLQAVGMFRDFNDPSQDPDFTQVVELDLKTVVPCCSGPKRPQDKVAVSDMKKDFESCLGAKQGFKGFQVAPEHHNDHKTFIYDNTEFTLAHGSVVIAAITSCTNTSNPSVMLGAGLLAKKAVDAGLNVMPYIKTSLSPGSGVVTYYLQESGVMPYLSQLGFDVVGYGCMTCIGNSGPLPEPVVEAITQGDLVAVGVLSGNRNFEGRVHPNTRANYLASPPLVIAYAIAGTIRIDFEKEPLGVNAKGQQVFLKDIWPTRDEIQAVERQYVIPGMFKEVYQKIETVNESWNALATPSDKLFFWNSKSTYIKSPPFFENLTLDLQPPKSIVDAYVLLNLGDSVTTDHISPAGNIARNSPAARYLTNRGLTPREFNSYGSRRGNDAVMARGTFANIRLLNRFLNKQAPQTIHLPSGEILDVFDAAERYQQAGLPLIVLAGKEYGAGSSRDWAAKGPFLLGIKAVLAESYERIHRSNLVGMGVIPLEYLPGENADALGLTGQERYTIIIPENLKPQMKVQVKLDTGKTFQAVMRFDTDVELTYFLNGGILNYMIRKMAK
# Target: calcitonin receptor-like receptor (human (endogenous in HDLEC)) (UniProt Q16602)
# Assay: proximity ligation; in situ PLA (Duolink) on paraformaldehyde-fixed HDLEC; rabbit anti-CLR serum LN-1436 with a mouse mAb against the partner; isotype IgG controls; 20 cells per group
row,binding,Molecule
1,binds,calcium/calmodulin-dependent protein kinase 2 delta (from UniProt Q13557 1-499) (enzyme)
2,binds,cell division control protein 42 (CDC42) binding protein kinase beta (from UniProt Q9Y5S2 1-1711) (enzyme)
3,binds,valosin-containing protein (from UniProt P55072 1-806)
4,binds,B1
5,binds,B2

# Target: calcitonin receptor-like receptor (human (endogenous in HDLEC)) (UniProt Q16602)
# Assay: co-IP; IP of endogenous CLR from HDLEC lysate with LN-1436, control IP with preimmune serum; immunoblotting for Nup93 (Fig. S4)
row,binding,Molecule
1,binds,B1
